Data on 54 sequences can be found in article PMC7819943, “Rice protein-binding microarrays: a tool to detect cis-acting elements near promoter regions in rice”.

This is one part of the list.

For the assay, the target named is T1, OsSMF1 (Oryza sativa, UniProt Q6ZLB0 1-436).
T1 sequence: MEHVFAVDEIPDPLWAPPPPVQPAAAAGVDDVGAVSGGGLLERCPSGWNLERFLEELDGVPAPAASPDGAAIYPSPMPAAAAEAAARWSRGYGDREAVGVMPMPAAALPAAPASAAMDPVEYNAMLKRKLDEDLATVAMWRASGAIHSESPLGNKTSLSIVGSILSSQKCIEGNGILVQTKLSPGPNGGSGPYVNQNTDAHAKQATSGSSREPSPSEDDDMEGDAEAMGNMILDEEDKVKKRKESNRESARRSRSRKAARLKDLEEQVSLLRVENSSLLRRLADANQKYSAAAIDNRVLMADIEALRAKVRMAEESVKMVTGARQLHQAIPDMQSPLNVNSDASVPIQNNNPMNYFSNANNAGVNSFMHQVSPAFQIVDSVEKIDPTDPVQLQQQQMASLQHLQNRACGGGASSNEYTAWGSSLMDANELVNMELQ
In words: protein-binding microarray (RPBM); PBS, 2% BSA, 51.3 ng/ul salmon testes DNA, 50 uM zinc acetate, 200 nM TF, 25 C, 1 h; high values mean tight binding. To be noted: protein: recombinant; tags: N-terminal polyhistidine and DsRed monomer fusion (pET32a); chain copies: 2; label: CyDye5-dUTP incorporated in the synthesized complementary strand; 3' TTTTT single-stranded linker to array surface; dsDNA, one strand shown. In outline: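 A custom Agilent array was converted to double-stranded form by primer extension with Cy5-dUTP and blocked with 2% BSA. Protein at 200 nM in PBS with 2% BSA, salmon testes DNA and 50 µM zinc acetate was applied for 1 h at 25 °C, followed by washing. The proteins were polyhistidine–DsRed N-terminal fusions of transcription factors, expressed in E. coli BL21-CodonPlus and Ni–NTA-purified. The binding signal is per-feature fluorescence intensity (arbitrary units) from an Axon 4000B scanner.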
On to “CGTGGTCGCCCTCCAAAGTCTCGCGCCGACGCACGCCCACCGGAGTCACCTAGTGCAG”, for which the binding signal is 3440 fluorescence intensity (a.u.).

Consider “GGACCGTCGAGCTCCATGACCGCTTCGTCGACGCCGTCACCGGAGTCACCTAGTGCAG”, for which the binding signal is 3500 fluorescence intensity (a.u.).

Turning to “TCTTGTGTGTTTGTTCCGATTTGCTGCTCAATCTGTCCATCGGAGTCACCTAGTGCAG”, the binding signal was 3240 fluorescence intensity (a.u.).

Consider “TAATTAAGAGCTCCACACTTCCACTTATCTGGGTTTGATGCGGAGTCACCTAGTGCAG”, for which the binding signal was 28300 fluorescence intensity (a.u.).

Take “CTCTCTCCTCACGTCACGAATCAACGATCCTAGGAACAACCGGAGTCACCTAGTGCAG”: the binding signal was 6400 fluorescence intensity (a.u.).

As to “GTGGCATTGACGTGGCGCTTACGTGTCAATTCTACTCCGGCGGAGTCACCTAGTGCAG”, the binding signal was 44200 fluorescence intensity (a.u.).

As for “GGGGAGTATCGGTTCTGGCATCGTACTAAACGGTATTGTCCGGAGTCACCTAGTGCAG”, the binding signal was 19700 fluorescence intensity (a.u.).

For “GAGCTCCGGACCTGGCTCGCGTCACCGACAAGTGGGCCCCCGGAGTCACCTAGTGCAG”, the binding signal is 3490 fluorescence intensity (a.u.).

For the sequence “TTTCTTTTCAAAACATATCCATATACACGTGCACACACTCCGGAGTCACCTAGTGCAG”, the binding signal is 5530 fluorescence intensity (a.u.).

Turning to “TTTAGTTGAAATTAAACATATCCACGTATTCATTTTATACCGGAGTCACCTAGTGCAG”, the binding signal was 4880 fluorescence intensity (a.u.).

For the sequence “TGCTCTCTGTAAATGTAATGTGCATGGGTGTCATATCTAGCGGAGTCACCTAGTGCAG”, the binding signal was 3620 fluorescence intensity (a.u.).

For the sequence “TGTGCACGAGCTTAGCGAGGGTGGTCGGTGATCTGCTCGGCGGAGTCACCTAGTGCAG”, the binding signal is 3380 fluorescence intensity (a.u.).

As for “TCGCCGGTCAGAGGCCACTGTGTCATCGTGCTTCTCCGACCGGAGTCACCTAGTGCAG”, the binding signal was 3750 fluorescence intensity (a.u.).

In the case of “CCTGCATCAAGAGGATGCGTCACCGATGAGTAGATCCTGCCGGAGTCACCTAGTGCAG”, the binding signal is 6970 fluorescence intensity (a.u.).

Turning to “CATCAACACTTCGCATCGTGTGCTTGCAACTCACGGCTCACGGAGTCACCTAGTGCAG”, the binding signal was 3400 fluorescence intensity (a.u.).

With “GCACGAATCATGGAGTAGATATAAAGGTCAAGATTTGCAACGGAGTCACCTAGTGCAG”, the binding signal was 3490 fluorescence intensity (a.u.).

As for “AATTTAATGCCACGTAAGCGCCACGTTGATGCTATGTAAGCGGAGTCACCTAGTGCAG”, the binding signal is 35700 fluorescence intensity (a.u.).

On to “ACTATCGGTACATATCTTATTGACATCATGCCTATATGACCGGAGTCACCTAGTGCAG”, for which the binding signal is 4560 fluorescence intensity (a.u.).

With “GCTACGATGCGATCTCATCATCATCATCCATTCATTCATTCGGAGTCACCTAGTGCAG”, the binding signal was 3440 fluorescence intensity (a.u.).

As for “TCAATAAATCATAAAACAAATTTATTAAGCCTAATTAATCCGGAGTCACCTAGTGCAG”, the binding signal is 24300 fluorescence intensity (a.u.).

As to “ATAAGTCCACAAACATTTGGCCCACTTCCCCGTCACACCTCGGAGTCACCTAGTGCAG”, the binding signal was 4220 fluorescence intensity (a.u.).

On to “GAAACGTGACGGCAACGTCAGCTTTATTACCGATGCAGGTCGGAGTCACCTAGTGCAG”, for which the binding signal is 7060 fluorescence intensity (a.u.).

With “AGGGGTCCTAATAGTAGAGAATGACGAAGCAAATTTTGCACGGAGTCACCTAGTGCAG”, the binding signal was 4360 fluorescence intensity (a.u.).

Consider “TTGTTGTTTACCGTCACACTTAATTACCAGGTCATTTACACGGAGTCACCTAGTGCAG”, for which the binding signal was 3850 fluorescence intensity (a.u.).

In the case of “TATAATTGCCACGGTCATCGCCACATCAATGTCACGTGGGCGGAGTCACCTAGTGCAG”, the binding signal is 4640 fluorescence intensity (a.u.).

On to “TTGTTTATAAAGACAATAGGTGGAATTTGATCTGGAAATGCGGAGTCACCTAGTGCAG”, for which the binding signal was 27600 fluorescence intensity (a.u.).

In the case of “ACGGGCATGGGTAGTCACTACCCGTGCCCGTCGTGCCCGACGGAGTCACCTAGTGCAG”, the binding signal is 3560 fluorescence intensity (a.u.).

As for “AAGAACGCCTTCGCGTGGGCCGCCGTCATCGGGATGTGGACGGAGTCACCTAGTGCAG”, the binding signal was 3220 fluorescence intensity (a.u.).

Regarding “GGCTCACTTATTGGGTCAACTAAACTTGTATTATTGGAATCGGAGTCACCTAGTGCAG”, the binding signal is 38500 fluorescence intensity (a.u.).

With “AGCTGGACAAGATCGGAATAGTAGGCCAGGCCCAAAGCAACGGAGTCACCTAGTGCAG”, the binding signal is 49400 fluorescence intensity (a.u.).

As to “CGAGTGACGGGTACGTGGATGATGAGGTGGTGACTGGTGACGGAGTCACCTAGTGCAG”, the binding signal is 6470 fluorescence intensity (a.u.).

For the sequence “TATGAAATGAAGTGGCGGCTCTGCATCCGCTAACGACGCCCGGAGTCACCTAGTGCAG”, the binding signal is 3720 fluorescence intensity (a.u.).

With “GTAGGCTAGCGATCCATGACACGGTGGCCCGAGCAGAGGCCGGAGTCACCTAGTGCAG”, the binding signal is 3690 fluorescence intensity (a.u.).

Consider “GATGCACTTCAGCACTTCGCAATCGATGACTAGATCAAACCGGAGTCACCTAGTGCAG”, for which the binding signal is 4020 fluorescence intensity (a.u.).

For the sequence “TTGTGCTTTTCAGTTTCCACTTTCCAGCATGGATTTGCGCCGGAGTCACCTAGTGCAG”, the binding signal is 3380 fluorescence intensity (a.u.).

For “TAACATAAAGACAGTGATGAGCTGGGCAAAGGTCACCGGTCGGAGTCACCTAGTGCAG”, the binding signal is 3140 fluorescence intensity (a.u.).

Regarding “AGAAATTAAATTTAATCAGCACAGATCAACACACGTAAGTCGGAGTCACCTAGTGCAG”, the binding signal is 3250 fluorescence intensity (a.u.).

In the case of “GTCTATTCTACCAGACCACATCCTGTCCACGTCACTCGTTCGGAGTCACCTAGTGCAG”, the binding signal is 30400 fluorescence intensity (a.u.).

For the sequence “TTTGTGTTTCAGCTCGGTGACACCAACCACGTATGTGCTACGGAGTCACCTAGTGCAG”, the binding signal was 5120 fluorescence intensity (a.u.).

Consider “AGTTTGTTAAACCGTGGATTGACTCATGACTTATCTACTACGGAGTCACCTAGTGCAG”, for which the binding signal is 6460 fluorescence intensity (a.u.).

In the case of “GGCATCACTCACAATAATTCTTTAGGGCCCGATGTAGCACCGGAGTCACCTAGTGCAG”, the binding signal was 28000 fluorescence intensity (a.u.).

Consider “GATGTATGTGAGCCACAACTTTGCAAGTGGTGGACGAGCCCGGAGTCACCTAGTGCAG”, for which the binding signal was 3730 fluorescence intensity (a.u.).

Regarding “CACATTAACCTATTATTTACAGGTATAAACAAACATACTACGGAGTCACCTAGTGCAG”, the binding signal is 25000 fluorescence intensity (a.u.).

For the sequence “GATCAAAATATCAAAAGCTTGACTAATTTTATCCAAAACACGGAGTCACCTAGTGCAG”, the binding signal was 18900 fluorescence intensity (a.u.).

For “GAGATAGATCAAAGCGGTGAGTTGCATGACTCATGTTCGACGGAGTCACCTAGTGCAG”, the binding signal was 8610 fluorescence intensity (a.u.).

With “GATCATGATGTCGTCGTGGATATATACCTTACCATGGATACGGAGTCACCTAGTGCAG”, the binding signal was 3290 fluorescence intensity (a.u.).

Consider “CGATGAGCACCGCAGCGATTGACATATTGCAATATCGTTCCGGAGTCACCTAGTGCAG”, for which the binding signal is 3550 fluorescence intensity (a.u.).

Take “GCCGCCGCCACCGCCGCCGCAGCCTCCTCTCGCTCCGCCTCGGAGTCACCTAGTGCAG”: the binding signal is 18300 fluorescence intensity (a.u.).

“TGCCTGCATGTCCACCGCCGGCACTAGCAGCCACGCTCGCCGGAGTCACCTAGTGCAG”: the binding signal is 3310 fluorescence intensity (a.u.).

Take “AGATTCCTGTCATGTGTCCAATTAAGGCTTTGTTCATCGTCGGAGTCACCTAGTGCAG”: the binding signal is 3240 fluorescence intensity (a.u.).

“TGGCATTGAAGTAGCCCGCCATCGCCAGCTCGATCTCCGACGGAGTCACCTAGTGCAG”: the binding signal was 3350 fluorescence intensity (a.u.).

For the sequence “ATCGTGTTGCATAATTTGGCAAAGGGTGACAATGGTTCTTCGGAGTCACCTAGTGCAG”, the binding signal is 4040 fluorescence intensity (a.u.).

For the sequence “CAAGGGAGCTGGTAACACTCATCATTTCCGTTCTTCAAATCGGAGTCACCTAGTGCAG”, the binding signal was 3250 fluorescence intensity (a.u.).

For “TCATTACATCCGTCACGGATGACGGATGACATATTATCCACGGAGTCACCTAGTGCAG”, the binding signal was 4600 fluorescence intensity (a.u.).
